Experimental data: patent US20130199313A1, “METHOD FOR EVALUATING THE SOLUBILITY OF A CRYSTALLINE SUBSTANCE IN A POLYMER” (Abbott GmbH & Co, KGW, priority 2010, published 2013)

Test: Flory-Huggins fit of solute activity from annealing-method solubility data (interaction parameter χ)
Assay type: physicochemical
Conditions: polymer PVP K-12, Flory-Huggins fit

COC(=O)C1=C(C)NC(C)=C(C(=O)OC)C1c1ccccc1[N+](=O)[O-] [NIF, nifedipine]
solute-solvent interaction parameter χ as determined with the method of the present invention: −2.5 ± 0.2
